In the supplement of paper PMC12819154, “High-throughput peptide-centric local stability assay extends protein–ligand identification to membrane proteins, tissues and bacteria” (Nature Structural & Molecular Biology, 2025):
The list shows a part of the results. Small differences around the control level are noise.

Sequences of proteins named here, by UniProt entry; tags and fusion partners are left off. A change or cut given only in a name is not applied to a line headed by its entry.
UniProt P52739: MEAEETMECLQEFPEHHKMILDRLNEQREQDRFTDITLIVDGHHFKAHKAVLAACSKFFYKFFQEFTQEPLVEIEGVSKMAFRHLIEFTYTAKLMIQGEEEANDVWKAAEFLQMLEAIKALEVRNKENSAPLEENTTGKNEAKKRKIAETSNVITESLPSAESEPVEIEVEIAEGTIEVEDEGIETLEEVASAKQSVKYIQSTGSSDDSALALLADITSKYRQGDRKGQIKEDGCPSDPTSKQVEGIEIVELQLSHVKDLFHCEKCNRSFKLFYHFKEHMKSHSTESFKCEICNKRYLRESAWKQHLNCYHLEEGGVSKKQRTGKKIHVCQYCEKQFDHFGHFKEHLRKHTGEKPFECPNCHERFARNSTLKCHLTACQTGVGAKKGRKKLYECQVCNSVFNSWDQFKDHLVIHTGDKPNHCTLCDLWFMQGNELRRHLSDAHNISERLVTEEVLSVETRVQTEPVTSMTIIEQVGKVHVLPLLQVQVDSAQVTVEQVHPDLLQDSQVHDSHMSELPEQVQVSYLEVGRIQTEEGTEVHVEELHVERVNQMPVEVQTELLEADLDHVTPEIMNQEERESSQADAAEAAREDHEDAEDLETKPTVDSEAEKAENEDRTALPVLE
UniProt P49848, whole entry: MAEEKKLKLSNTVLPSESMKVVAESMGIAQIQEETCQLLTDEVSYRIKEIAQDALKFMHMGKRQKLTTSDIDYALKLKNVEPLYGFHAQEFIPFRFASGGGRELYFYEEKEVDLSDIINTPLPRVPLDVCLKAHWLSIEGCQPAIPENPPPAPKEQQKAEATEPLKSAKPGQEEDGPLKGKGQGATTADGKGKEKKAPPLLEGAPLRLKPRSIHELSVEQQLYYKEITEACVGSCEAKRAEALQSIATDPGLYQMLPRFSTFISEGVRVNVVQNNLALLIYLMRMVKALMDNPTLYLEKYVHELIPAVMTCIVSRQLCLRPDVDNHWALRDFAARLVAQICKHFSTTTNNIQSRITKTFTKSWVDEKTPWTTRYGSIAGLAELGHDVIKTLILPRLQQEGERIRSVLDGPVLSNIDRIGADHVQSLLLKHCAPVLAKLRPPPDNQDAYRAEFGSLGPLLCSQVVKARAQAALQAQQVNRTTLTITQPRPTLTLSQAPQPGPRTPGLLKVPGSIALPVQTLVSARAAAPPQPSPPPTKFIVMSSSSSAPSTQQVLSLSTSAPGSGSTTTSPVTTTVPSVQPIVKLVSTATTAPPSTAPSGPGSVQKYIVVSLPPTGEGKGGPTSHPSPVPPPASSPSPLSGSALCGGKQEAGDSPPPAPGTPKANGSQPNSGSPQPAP
UniProt P52756, whole entry: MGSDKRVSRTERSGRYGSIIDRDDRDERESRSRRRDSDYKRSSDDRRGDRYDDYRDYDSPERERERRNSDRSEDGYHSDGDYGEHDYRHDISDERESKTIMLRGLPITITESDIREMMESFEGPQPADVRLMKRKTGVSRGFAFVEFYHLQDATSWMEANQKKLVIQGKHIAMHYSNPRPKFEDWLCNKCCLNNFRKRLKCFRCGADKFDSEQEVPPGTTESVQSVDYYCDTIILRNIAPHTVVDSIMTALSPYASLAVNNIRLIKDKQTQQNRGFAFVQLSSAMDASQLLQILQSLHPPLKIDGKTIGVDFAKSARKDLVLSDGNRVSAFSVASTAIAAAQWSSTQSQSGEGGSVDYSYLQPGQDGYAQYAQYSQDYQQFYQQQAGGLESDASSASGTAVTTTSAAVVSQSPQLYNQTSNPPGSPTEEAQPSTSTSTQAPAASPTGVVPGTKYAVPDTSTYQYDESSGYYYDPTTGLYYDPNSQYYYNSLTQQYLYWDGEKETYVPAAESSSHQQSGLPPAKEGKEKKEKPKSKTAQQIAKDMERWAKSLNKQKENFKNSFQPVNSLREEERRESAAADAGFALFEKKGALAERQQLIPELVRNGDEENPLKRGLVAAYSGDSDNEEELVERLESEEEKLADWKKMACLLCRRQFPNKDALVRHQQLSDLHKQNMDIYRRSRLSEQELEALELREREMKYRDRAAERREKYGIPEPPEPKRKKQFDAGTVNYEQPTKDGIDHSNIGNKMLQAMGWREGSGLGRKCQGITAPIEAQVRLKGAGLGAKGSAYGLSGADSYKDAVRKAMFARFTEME
UniProt P49593: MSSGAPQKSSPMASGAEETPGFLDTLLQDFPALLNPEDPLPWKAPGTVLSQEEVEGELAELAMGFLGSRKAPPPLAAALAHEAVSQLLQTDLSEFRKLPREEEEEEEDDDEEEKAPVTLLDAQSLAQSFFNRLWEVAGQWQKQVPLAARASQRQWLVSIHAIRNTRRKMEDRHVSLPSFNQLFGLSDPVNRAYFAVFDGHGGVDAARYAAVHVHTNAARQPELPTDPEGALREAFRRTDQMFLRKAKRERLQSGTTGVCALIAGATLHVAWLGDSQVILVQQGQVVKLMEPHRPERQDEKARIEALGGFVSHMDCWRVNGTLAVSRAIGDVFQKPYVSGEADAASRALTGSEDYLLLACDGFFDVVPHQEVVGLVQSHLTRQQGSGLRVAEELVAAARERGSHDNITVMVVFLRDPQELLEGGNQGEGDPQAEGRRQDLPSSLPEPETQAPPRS
UniProt P52566: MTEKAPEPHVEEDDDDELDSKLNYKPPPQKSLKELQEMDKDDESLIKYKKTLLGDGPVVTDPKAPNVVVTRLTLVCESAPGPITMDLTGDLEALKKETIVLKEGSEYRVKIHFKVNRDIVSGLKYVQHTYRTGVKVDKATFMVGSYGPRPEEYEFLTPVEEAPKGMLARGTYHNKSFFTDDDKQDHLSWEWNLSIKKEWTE
UniProt P49917: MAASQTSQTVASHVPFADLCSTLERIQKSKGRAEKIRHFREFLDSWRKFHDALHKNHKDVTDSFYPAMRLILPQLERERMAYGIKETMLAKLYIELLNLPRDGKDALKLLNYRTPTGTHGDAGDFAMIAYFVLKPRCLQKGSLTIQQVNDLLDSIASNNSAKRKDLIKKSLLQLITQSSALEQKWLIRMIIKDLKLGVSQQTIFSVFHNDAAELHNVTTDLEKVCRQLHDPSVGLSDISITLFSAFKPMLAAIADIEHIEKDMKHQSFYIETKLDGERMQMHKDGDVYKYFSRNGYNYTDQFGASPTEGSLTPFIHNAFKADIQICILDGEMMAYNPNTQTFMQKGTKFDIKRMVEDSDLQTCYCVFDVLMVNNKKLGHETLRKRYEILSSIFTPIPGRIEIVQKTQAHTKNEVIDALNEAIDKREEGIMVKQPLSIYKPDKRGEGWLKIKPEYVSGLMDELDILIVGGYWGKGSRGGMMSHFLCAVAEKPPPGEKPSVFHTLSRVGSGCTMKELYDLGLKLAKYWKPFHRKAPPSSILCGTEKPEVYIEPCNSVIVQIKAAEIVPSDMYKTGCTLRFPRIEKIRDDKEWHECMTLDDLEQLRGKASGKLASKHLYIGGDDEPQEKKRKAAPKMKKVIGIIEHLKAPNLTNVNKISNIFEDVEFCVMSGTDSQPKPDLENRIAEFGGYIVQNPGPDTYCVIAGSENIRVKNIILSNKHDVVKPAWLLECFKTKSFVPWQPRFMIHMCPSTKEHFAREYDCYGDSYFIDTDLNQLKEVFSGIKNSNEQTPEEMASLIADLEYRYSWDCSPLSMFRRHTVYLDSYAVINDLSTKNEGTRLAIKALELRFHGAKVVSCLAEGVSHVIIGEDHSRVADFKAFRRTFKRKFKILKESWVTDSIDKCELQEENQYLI
UniProt P49459, whole entry: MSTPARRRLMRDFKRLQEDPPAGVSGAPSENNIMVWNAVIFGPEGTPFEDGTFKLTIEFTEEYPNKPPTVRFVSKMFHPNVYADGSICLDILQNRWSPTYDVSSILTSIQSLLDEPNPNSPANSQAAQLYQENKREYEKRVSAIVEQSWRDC
UniProt P52758: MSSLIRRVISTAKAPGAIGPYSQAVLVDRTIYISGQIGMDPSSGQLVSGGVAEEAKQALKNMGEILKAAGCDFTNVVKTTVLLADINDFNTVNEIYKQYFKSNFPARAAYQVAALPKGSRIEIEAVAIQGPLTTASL
UniProt P53778: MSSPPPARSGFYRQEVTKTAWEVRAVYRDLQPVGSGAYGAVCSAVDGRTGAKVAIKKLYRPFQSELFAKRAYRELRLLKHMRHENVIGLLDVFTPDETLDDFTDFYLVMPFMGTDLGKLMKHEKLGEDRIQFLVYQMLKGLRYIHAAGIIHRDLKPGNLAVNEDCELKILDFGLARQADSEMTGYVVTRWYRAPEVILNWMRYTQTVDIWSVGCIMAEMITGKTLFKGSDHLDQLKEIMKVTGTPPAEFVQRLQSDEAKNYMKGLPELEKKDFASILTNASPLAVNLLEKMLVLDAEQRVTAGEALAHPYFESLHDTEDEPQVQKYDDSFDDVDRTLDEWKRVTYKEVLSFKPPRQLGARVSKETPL
UniProt P49750: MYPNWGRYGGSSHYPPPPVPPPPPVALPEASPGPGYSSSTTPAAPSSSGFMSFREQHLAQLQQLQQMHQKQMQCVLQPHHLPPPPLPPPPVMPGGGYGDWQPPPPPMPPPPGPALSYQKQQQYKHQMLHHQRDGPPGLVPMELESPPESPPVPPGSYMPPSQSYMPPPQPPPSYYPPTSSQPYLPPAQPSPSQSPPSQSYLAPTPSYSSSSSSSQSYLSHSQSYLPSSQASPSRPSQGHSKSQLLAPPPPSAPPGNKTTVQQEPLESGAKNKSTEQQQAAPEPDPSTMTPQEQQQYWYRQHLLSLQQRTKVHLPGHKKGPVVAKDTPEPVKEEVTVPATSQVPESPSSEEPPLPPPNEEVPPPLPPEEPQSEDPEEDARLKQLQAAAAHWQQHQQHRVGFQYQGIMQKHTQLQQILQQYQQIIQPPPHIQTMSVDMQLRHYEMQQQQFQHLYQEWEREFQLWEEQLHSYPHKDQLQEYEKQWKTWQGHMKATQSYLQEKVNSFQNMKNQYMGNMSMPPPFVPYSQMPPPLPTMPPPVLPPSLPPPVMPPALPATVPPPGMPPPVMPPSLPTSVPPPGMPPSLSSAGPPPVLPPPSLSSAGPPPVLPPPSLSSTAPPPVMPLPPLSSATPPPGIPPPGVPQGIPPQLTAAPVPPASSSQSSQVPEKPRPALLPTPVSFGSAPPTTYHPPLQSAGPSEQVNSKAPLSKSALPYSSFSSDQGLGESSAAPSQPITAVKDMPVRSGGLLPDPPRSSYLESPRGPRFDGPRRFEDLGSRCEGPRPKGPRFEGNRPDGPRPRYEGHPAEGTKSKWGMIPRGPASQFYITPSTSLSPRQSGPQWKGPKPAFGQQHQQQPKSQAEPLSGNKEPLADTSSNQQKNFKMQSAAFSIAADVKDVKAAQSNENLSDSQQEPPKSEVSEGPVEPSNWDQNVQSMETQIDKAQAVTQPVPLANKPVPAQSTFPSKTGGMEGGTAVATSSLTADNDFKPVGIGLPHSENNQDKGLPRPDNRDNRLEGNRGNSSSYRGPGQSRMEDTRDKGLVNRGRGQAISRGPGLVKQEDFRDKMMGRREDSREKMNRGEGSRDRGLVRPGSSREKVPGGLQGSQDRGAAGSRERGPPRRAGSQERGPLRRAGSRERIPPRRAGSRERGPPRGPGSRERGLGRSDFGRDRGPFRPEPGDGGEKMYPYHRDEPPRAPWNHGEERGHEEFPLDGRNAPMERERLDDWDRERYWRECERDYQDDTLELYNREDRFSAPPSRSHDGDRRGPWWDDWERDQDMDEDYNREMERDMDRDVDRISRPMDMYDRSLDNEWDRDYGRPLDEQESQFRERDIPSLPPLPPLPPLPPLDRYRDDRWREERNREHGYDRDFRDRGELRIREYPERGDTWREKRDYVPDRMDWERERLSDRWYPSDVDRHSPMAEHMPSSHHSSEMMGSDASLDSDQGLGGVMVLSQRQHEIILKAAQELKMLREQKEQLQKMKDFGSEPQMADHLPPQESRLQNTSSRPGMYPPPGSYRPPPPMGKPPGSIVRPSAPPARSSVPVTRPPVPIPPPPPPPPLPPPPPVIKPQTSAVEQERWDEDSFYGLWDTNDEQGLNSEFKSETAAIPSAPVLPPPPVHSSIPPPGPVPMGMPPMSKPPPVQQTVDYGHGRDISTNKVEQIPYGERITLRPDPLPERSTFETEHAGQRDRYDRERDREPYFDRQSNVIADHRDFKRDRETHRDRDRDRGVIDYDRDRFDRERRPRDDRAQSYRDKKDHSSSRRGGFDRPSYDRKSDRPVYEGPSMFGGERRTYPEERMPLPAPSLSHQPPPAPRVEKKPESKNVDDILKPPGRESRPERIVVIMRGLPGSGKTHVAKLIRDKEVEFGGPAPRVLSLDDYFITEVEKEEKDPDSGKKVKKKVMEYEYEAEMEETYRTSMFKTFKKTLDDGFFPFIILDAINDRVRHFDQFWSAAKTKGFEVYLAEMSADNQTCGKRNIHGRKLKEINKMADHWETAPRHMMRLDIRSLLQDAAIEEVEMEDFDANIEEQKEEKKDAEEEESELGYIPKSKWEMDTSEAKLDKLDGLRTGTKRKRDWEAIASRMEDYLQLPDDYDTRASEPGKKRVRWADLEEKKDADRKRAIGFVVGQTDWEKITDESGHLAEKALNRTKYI

Compound: Cc1nc(Nc2ncc(C(=O)Nc3c(C)cccc3Cl)s2)cc(N2CCN(CCO)CC2)n1 [dasatinib]
Assay: log2 fold change of tryptic peptide abundance, ligand vs vehicle (limited proteolysis) (log2 ratio); higher = more trypsin-susceptible (destabilized)
Conditions: ligand concentration: 5 uM; sample: K562 cleared lysate

Row | Target | log2 fold change
1 | MNAT1 (peptide sequence: EEQLQQILK, peptide start residue: 168) (UniProt P51948) | 0.359
2 | ZNF131 (peptide sequence: HLSDAHNISER, peptide start residue: 438) (UniProt P52739) | -0.92
3 | HCCS (peptide sequence: AYEYVECPIR, peptide start residue: 60) (UniProt P53701) | 0.219
4 | TAF6 (peptide sequence: HCAPVLAK, peptide start residue: 430) (UniProt P49848) | -0.365
5 | RBM5 (peptide sequence: GSAYGLSGADSYKDAVR, peptide start residue: 788) (UniProt P52756) | -0.329
6 | ARFIP1 (peptide sequence: TIEDTLMTVK, peptide start residue: 249) (UniProt P53367) | -0.138
7 | GCLM (peptide sequence: IVAIGTSDLDK, peptide start residue: 159) (UniProt P48507) | 0.194
8 | RPL14 (peptide sequence: APAQKAPAPK, peptide start residue: 200) (UniProt P50914) | -0.178
9 | IDH2 (peptide sequence: LILPHVDIQLK, peptide start residue: 70) (UniProt P48735) | 1.01
10 | PPM1F (peptide sequence: LMEPHRPERQDEK, peptide start residue: 288) (UniProt P49593) | -0.115
11 | NEK3 (peptide sequence: SKNIFLTQNGK, peptide start residue: 130) (UniProt P51956) | -0.723
12 | DNM2 (peptide sequence: GMEELIPLVNK, peptide start residue: 5) (UniProt P50570) | -0.0924
13 | BLVRA (peptide sequence: FGFPAFSGISR, peptide start residue: 162) (UniProt P53004) | 0.262
14 | AARS (peptide sequence: ASEWVQQVSGLMDGKGGGK, peptide start residue: 916) (UniProt P49588) | 0.325
15 | RFX2 (peptide sequence: SSLYNHYLR, peptide start residue: 218) (UniProt P48378) | -0.271
16 | ARHGDIB (peptide sequence: TLLGDGPVVTDPK, peptide start residue: 51) (UniProt P52566) | 0.139
17 | UniProt P48047 (peptide sequence: VAASVLNPYVK, peptide start residue: 74) | -0.283
18 | LIG4 (peptide sequence: LILPQLER, peptide start residue: 70) (UniProt P49917) | -0.485
19 | BLM (peptide sequence: KVAFDCLEWIR, peptide start residue: 873) (UniProt P54132) | -0.445

Row | Target | log2 fold change
20 | CDC34 (peptide sequence: DGVKVPTTLAEYCVK, peptide start residue: 179) (UniProt P49427) | 0.207
21 | EMD (peptide sequence: YNIPHGPVVGSTR, peptide start residue: 19) (UniProt P50402) | 0.169
22 | UniProt P49459 (peptide sequence: RVSAIVEQSWRDC, peptide start residue: 140) | -0.412
23 | DAPK1 (peptide sequence: KASAVNMEK, peptide start residue: 287) (UniProt P53355) | -0.635
24 | IDH3A (peptide sequence: CREVAESCK, peptide start residue: 215) (UniProt P50213) | -1.1
25 | ALDH1A3 (peptide sequence: IAFTGSTEVGK, peptide start residue: 259) (UniProt P47895) | -0.000271
26 | UniProt P52758 (peptide sequence: AAYQVAALPK, peptide start residue: 108) | -0.291
27 | GDI2 (peptide sequence: KNDIYGED, peptide start residue: 438) (UniProt P50395) | -0.0588
28 | MAPK12 (peptide sequence: GSDHLDQLK, peptide start residue: 228) (UniProt P53778) | -0.145
29 | RAP1GAP (peptide sequence: AAGISLIVPGKSPTR, peptide start residue: 473) (UniProt P47736) | -0.143
30 | CLCN3 (peptide sequence: DLTIAIESAR, peptide start residue: 711) (UniProt P51790) | -0.207
31 | GALK1 (peptide sequence: EVQLEELEAAR, peptide start residue: 257) (UniProt P51570) | 0.132
32 | NR2C2 (peptide sequence: SNQDCIINK, peptide start residue: 155) (UniProt P49116) | -0.438
33 | NSF (peptide sequence: MGIGGLDKEFSDIFRR, peptide start residue: 218) (UniProt P46459) | 0.14
34 | PCYT1A (peptide sequence: TSPPCSPANLSR, peptide start residue: 342) (UniProt P49585) | 0.12
35 | GYG1 (peptide sequence: ERWEQGQADYMGADSFDNIKR, peptide start residue: 323) (UniProt P46976) | 0.365
36 | IQGAP1 (peptide sequence: DRLQYFR, peptide start residue: 827) (UniProt P46940) | 0.302
37 | YLPM1 (peptide sequence: DYVPDRMDWER, peptide start residue: 1388) (UniProt P49750) | -0.219

Shown with tabs: part of the list above
Row	Target	log2 fold change
30	CLCN3 (peptide sequence: DLTIAIESAR, peptide start residue: 711) (UniProt P51790)	-0.207
31	GALK1 (peptide sequence: EVQLEELEAAR, peptide start residue: 257) (UniProt P51570)	0.132
